The supplement of paper PMC10849652
This is one part of the list.

Chains of the proteins cited; added tags and fusions are not shown. Lines headed by an entry give the natural chain unless they say otherwise; changes in a name come on top.
UniProt P50502: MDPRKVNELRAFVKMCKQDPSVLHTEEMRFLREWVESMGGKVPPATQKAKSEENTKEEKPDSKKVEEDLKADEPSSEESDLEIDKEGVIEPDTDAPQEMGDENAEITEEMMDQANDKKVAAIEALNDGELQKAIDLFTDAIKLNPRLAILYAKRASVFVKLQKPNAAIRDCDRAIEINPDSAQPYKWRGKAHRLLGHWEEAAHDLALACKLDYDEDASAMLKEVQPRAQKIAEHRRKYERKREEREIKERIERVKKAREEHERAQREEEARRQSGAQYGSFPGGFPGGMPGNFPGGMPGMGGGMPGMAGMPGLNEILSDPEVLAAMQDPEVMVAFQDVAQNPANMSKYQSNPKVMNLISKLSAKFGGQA
UniProt Q9NUL3: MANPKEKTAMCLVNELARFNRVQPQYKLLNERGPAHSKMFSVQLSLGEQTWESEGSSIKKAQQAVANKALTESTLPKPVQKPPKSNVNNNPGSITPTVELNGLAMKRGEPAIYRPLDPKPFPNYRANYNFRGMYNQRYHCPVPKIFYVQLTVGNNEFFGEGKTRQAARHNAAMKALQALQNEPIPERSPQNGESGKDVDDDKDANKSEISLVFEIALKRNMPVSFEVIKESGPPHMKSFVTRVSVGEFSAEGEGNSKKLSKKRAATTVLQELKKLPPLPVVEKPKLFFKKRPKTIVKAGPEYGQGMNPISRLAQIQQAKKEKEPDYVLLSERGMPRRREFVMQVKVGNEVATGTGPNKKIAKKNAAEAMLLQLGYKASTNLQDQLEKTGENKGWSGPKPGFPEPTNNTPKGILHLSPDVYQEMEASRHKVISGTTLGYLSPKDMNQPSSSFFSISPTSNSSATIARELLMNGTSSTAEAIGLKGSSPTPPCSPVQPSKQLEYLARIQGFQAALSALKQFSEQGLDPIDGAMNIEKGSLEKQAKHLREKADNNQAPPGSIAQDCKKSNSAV
UniProt O15020, whole entry, looked up: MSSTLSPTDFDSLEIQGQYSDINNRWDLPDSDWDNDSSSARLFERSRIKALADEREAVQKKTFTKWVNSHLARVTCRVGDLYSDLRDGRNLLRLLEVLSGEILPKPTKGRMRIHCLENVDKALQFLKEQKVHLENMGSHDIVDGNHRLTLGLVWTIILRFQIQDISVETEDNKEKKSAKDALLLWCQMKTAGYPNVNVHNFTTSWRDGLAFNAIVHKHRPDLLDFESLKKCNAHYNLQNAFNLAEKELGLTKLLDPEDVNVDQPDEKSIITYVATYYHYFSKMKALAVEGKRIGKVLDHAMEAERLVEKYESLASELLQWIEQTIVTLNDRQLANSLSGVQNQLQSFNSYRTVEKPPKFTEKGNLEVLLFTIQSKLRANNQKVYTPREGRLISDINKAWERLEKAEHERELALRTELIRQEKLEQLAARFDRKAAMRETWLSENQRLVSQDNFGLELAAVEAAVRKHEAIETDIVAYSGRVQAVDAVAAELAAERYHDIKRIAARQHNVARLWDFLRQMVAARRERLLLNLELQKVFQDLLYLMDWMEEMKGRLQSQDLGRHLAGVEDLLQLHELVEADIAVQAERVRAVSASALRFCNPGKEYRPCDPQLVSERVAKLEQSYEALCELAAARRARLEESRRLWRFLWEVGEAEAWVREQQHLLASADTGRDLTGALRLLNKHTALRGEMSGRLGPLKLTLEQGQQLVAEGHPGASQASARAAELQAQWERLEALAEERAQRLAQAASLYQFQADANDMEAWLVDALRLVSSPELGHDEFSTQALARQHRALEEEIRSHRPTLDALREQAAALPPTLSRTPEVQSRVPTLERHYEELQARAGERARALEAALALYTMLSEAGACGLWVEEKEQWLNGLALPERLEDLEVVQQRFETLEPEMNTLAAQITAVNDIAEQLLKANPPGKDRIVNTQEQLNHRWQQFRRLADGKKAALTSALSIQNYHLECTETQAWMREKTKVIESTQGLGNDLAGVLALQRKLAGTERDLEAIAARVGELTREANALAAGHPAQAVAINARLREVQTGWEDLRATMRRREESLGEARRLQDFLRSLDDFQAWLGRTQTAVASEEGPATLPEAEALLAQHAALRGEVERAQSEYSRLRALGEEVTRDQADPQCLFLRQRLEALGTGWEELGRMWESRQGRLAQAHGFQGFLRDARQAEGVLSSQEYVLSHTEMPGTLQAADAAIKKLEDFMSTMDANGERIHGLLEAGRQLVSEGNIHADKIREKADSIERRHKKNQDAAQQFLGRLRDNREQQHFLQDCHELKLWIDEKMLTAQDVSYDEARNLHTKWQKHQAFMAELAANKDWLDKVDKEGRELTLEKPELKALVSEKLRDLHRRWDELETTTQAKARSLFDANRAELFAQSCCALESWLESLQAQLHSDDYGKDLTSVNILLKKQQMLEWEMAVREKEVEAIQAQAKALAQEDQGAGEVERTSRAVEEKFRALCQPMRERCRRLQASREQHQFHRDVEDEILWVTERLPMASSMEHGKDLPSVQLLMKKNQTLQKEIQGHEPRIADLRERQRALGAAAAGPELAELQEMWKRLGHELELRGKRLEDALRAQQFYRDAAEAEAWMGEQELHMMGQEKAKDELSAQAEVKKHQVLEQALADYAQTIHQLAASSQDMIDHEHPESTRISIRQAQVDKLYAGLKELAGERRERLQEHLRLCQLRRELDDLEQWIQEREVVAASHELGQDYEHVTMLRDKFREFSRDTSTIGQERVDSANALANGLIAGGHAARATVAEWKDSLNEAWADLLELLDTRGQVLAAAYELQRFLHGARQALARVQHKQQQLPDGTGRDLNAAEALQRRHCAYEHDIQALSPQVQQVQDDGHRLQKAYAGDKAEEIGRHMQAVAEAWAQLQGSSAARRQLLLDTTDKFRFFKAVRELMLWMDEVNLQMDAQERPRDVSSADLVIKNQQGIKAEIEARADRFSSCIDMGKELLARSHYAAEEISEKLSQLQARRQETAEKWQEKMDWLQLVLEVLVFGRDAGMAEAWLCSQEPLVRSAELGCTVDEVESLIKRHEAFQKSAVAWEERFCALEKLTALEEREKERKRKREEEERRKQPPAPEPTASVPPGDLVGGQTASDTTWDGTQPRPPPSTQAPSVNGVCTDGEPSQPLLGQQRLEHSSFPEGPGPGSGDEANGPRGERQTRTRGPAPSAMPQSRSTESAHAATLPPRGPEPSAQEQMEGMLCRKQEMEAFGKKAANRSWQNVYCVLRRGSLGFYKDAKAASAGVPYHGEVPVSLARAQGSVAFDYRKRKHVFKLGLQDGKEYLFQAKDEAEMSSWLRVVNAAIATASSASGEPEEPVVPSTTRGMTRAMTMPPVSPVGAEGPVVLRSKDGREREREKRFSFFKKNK
UniProt P78362, whole entry, looked up: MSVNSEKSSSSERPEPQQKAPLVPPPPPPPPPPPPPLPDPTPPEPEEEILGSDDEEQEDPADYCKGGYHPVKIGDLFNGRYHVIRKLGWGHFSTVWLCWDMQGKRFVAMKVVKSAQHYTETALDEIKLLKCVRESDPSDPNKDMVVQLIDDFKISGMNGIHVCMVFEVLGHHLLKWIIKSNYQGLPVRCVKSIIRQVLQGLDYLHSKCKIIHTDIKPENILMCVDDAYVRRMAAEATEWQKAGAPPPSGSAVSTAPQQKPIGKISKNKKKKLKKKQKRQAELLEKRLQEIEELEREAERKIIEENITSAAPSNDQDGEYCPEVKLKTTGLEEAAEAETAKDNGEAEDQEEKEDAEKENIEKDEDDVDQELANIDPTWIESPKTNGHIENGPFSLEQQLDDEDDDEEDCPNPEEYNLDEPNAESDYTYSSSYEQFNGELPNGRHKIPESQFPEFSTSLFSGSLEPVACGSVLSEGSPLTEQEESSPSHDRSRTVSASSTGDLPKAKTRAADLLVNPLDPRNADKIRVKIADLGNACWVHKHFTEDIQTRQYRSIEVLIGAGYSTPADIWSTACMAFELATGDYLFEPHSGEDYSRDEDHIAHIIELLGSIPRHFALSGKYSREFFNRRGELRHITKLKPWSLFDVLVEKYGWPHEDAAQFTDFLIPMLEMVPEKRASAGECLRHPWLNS
UniProt Q15532, whole entry, looked up: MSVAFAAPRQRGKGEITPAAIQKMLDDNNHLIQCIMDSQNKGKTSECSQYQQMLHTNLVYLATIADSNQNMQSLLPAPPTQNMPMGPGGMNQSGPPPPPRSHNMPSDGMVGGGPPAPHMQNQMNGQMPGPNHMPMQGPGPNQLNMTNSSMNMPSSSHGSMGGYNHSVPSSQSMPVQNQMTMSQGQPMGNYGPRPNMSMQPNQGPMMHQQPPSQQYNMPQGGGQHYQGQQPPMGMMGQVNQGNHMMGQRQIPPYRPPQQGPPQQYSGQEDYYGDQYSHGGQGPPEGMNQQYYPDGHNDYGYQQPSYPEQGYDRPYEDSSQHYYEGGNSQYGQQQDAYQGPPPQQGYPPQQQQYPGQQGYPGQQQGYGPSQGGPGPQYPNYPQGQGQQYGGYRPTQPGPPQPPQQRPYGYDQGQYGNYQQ
UniProt O76061, whole entry, looked up: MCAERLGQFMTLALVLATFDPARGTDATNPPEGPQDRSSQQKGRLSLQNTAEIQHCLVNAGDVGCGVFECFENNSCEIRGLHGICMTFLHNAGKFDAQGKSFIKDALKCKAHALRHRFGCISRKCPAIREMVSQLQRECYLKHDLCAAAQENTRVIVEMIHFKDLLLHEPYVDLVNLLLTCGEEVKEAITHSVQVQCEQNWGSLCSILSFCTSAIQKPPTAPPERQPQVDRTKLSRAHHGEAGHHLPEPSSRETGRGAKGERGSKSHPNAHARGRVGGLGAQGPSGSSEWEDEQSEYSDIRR
UniProt Q76I76: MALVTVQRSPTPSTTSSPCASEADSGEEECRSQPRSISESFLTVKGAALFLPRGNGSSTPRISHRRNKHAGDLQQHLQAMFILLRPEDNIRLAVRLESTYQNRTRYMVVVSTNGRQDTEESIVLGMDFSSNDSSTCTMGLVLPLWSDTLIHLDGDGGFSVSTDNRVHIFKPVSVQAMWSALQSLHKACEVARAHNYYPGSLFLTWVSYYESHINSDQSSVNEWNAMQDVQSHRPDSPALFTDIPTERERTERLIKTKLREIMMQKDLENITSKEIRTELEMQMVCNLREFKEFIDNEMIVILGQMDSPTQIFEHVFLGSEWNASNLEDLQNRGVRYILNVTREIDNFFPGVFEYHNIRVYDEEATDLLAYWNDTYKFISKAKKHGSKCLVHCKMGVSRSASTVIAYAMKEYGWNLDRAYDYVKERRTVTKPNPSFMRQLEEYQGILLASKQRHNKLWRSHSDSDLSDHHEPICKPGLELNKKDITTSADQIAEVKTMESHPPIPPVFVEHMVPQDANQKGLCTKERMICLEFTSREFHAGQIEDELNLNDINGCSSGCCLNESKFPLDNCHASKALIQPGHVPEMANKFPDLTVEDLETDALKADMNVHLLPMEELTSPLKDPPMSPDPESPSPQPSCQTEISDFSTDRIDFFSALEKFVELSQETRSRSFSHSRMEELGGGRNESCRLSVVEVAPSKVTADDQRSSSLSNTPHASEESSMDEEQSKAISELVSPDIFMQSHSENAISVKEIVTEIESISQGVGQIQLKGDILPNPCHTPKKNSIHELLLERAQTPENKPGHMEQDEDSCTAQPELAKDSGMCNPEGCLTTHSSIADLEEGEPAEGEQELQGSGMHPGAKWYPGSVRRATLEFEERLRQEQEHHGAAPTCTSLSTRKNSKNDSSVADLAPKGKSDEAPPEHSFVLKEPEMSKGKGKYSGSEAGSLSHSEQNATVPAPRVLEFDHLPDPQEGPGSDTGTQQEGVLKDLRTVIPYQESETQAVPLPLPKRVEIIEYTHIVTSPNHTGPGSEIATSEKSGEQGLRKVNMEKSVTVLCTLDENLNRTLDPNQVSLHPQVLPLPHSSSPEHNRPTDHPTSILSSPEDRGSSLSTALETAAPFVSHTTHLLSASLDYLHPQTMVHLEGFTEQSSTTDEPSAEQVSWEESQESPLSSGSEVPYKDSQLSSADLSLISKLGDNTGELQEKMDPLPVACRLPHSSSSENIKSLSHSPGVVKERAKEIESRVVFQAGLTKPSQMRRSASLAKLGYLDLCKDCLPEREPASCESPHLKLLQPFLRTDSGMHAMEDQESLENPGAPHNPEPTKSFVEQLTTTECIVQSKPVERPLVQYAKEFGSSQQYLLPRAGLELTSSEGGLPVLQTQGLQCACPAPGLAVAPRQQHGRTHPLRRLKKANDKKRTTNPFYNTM
UniProt O95772: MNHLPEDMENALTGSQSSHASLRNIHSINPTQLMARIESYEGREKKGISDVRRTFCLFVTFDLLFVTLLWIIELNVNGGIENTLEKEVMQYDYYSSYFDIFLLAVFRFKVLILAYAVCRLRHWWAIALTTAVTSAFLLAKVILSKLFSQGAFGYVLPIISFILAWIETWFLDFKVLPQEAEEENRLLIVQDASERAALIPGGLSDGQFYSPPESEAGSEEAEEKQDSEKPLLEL
UniProt P37108: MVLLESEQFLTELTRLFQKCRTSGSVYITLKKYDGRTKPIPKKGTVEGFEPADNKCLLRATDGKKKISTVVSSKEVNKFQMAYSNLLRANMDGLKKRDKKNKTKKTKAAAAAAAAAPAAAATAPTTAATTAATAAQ

Tests used:
Assay in all cases: log2 fold change, soluble protein after heating vs DMSO (PISA); higher = thermal stabilisation; K562 lysate, 10 uM; active = over 0.2 and 3.5 SD of the protein, either way, in both replicates (recomputed)
erlotinib = compound: C#Cc1cccc(Nc2ncnc3cc(OCCOC)c(OCCOC)cc23)c1 [erlotinib]
Procedure, shortened: (§1)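 K562 pellets were dounce-homogenised in PBS pH 7.4 with 1 mM MgCl2, and the crude extract at 1 mg/mL protein was treated with 10 μM compound for 30 min. Aliquots were heated for 3 min across 48°C-58°C, pooled, and brought to 0.5% NP-40 at 4°C; soluble protein was the supernatant after 21,000xg for 90 min. Soluble protein was quantified by TMTpro 16plex LC-MS/MS with channel sums equalised, and reported as log2 fold change in thermal stability against DMSO controls, with values from duplicates.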

[1] = compound: C/C(=N\NC(=O)C1=CC(=CC=C1)S(=O)(=O)N2CCOCC2)/C3=C(C=CC(=C3)Cl)O
Procedure, shortened: as §1

[2] = compound: C1=CC(=CC=C1C2=NC3=C(N2)C=C(C=C3)C(=O)N)OC4=CC=C(C=C4)Cl
Procedure, shortened: as §1

[3] = compound: C1=CC2=C(C=CC(=C2)/C=C\3/C(=O)NC(=NCC4=CC=CS4)S3)N=C1
Procedure, shortened: as §1

[4] = compound: C1=CC2=NC=CN=C2C=C1/C=C/3\C(=O)NC(=O)S3
Procedure, shortened: as §1

[5] = compound: C1=CC=C(C=C1)C2=NC(=C(N2)C3=CC=NC=C3)C4=CC(=C(C=C4)Cl)O
Procedure, shortened: as §1

[6] = compound: C1=CC=C2C(=C1)C3=NNC4=CC=CC(=C43)C2=O
Procedure, shortened: as §1

[7] = compound: C1CCN(C1)C(=O)NC2=CC=CC(=C2)NC3=NC=C(C(=N3)NCCC4=CN=CN4)Br
Procedure, shortened: as §1

[8] = compound: C1CN(CCC1(CC2=CC=C(C=C2)Cl)N)C3=NC=NC4=C3C=CN4
Procedure, shortened: as §1

IRAK-1-4 Inhibitor I = compound: C1COCCN1CCN2C3=CC=CC=C3N=C2NC(=O)C4=CC(=CC=C4)[N+](=O)[O-] [IRAK-1-4 Inhibitor I]
Procedure, shortened: as §1

Measured: log2 fold change

ST13 (UniProt P50502)
inactive: erlotinib -0.015 | [1] -0.013 | [2] -0.027 | [3] -0.017 | [4] 0.004 | [5] 0.021 | [6] 0.025 | [7] 0.006 | [8] 0.004 | IRAK-1-4 Inhibitor I 0.001

STAU2 (UniProt Q9NUL3)
inactive: erlotinib 0.072 | [1] -0.164 | [2] 0.045 | [3] -0.001 | [4] -0.052 | [5] -0.006 | [6] -0.015 | [7] 0.02 | [8] 0.051 | IRAK-1-4 Inhibitor I -0.018

SPECC1 (UniProt Q5M775)
inactive: erlotinib -0.05 | [1] -0.013 | [2] 0.051 | [3] -0.024 | [4] -0.089 | [5] -0.013 | [6] -0.005 | [7] -0.152 | [8] 0.01 | IRAK-1-4 Inhibitor I -0.022

SPTBN2 (UniProt O15020)
inactive: erlotinib 0.038 | [1] 0.083 | [2] -0.042 | [3] 0.023 | [4] -0.006 | [5] 0.011 | [6] 0.024 | [7] -0.016 | [8] -0.023 | IRAK-1-4 Inhibitor I -0.058

SRXN1 (UniProt Q9BYN0)
inactive: erlotinib 0.005 | [1] -0.013 | [2] 0.057 | [3] -0.242 | [4] -0.028 | [5] -0.025 | [6] -0.074 | [7] -0.094 | [8] 0.071 | IRAK-1-4 Inhibitor I -0.01

STAMBP (UniProt O95630)
inactive: erlotinib -0.016 | [1] -0.005 | [2] 0.001 | [3] 0.012 | [4] -0.007 | [5] -0.014 | [6] 0.011 | [7] 0.019 | [8] -0.013 | IRAK-1-4 Inhibitor I -0.002

SSNA1 (UniProt O43805)
inactive: erlotinib -0.004 | [1] -0.04 | [2] -0.013 | [3] 0.07 | [4] -0.036 | [5] 0.04 | [6] -0.03 | [7] -0.002 | [8] 0.066 | IRAK-1-4 Inhibitor I 0.018

SRPK2 isoform 2 (UniProt P78362)
inactive: erlotinib -0.053 | [1] -0.062 | [2] 0.13 | [3] -0.017 | [4] 0.001 | [5] 0 | [6] 0.045 | [7] -0.035 | [8] -0.049 | IRAK-1-4 Inhibitor I -0.001

SPTLC1 (UniProt O15269)
inactive: erlotinib 0.009 | [1] 0.049 | [2] -0.024 | [3] -0.015 | [4] -0.011 | [5] -0.027 | [6] -0.014 | [7] -0.007 | [8] 0.034 | IRAK-1-4 Inhibitor I 0.022

SS18 (UniProt Q15532)
inactive: erlotinib 0.051 | [1] -0.027 | [2] 0.01 | [3] 0.11 | [5] 0.022 | [6] 0.083 | [7] 0.002 | [8] 0.202 | IRAK-1-4 Inhibitor I -0.029

Quoted at random: two records from the list
SPTLC1 (UniProt O15269)
inactive: erlotinib 0.009 | [1] 0.049 | [2] -0.024 | [3] -0.015 | [4] -0.011 | [5] -0.027 | [6] -0.014 | [7] -0.007 | [8] 0.034 | IRAK-1-4 Inhibitor I 0.022

SRPK2 isoform 2 (UniProt P78362)
inactive: erlotinib -0.053 | [1] -0.062 | [2] 0.13 | [3] -0.017 | [4] 0.001 | [5] 0 | [6] 0.045 | [7] -0.035 | [8] -0.049 | IRAK-1-4 Inhibitor I -0.001

Continued:

STC2 (UniProt O76061)
inactive: erlotinib -0.005 | [1] -0.264 | [2] -0.158 | [3] 0.046 | [5] 0.099 | [6] 0.257 | [7] -0.031 | [8] 0.052 | IRAK-1-4 Inhibitor I 0.085

SPRYD4 (UniProt Q8WW59)
inactive: erlotinib -0.024 | [1] 0.042 | [2] -0.017 | [3] 0.023 | [4] 0.019 | [5] 0.011 | [6] -0.022 | [7] -0.048 | [8] -0.017 | IRAK-1-4 Inhibitor I 0

SSH2 (UniProt Q76I76)
inactive: erlotinib 0.026 | [1] -0.016 | [2] -0.019 | [3] -0.021 | [5] -0.072 | [6] 0.138 | [7] -0.336 | [8] -0.227 | IRAK-1-4 Inhibitor I -0.107

SRSF4 (UniProt Q08170)
inactive: erlotinib -0.019 | [1] -0.027 | [2] -0.03 | [3] 0.002 | [4] 0.006 | [5] -0.023 | [6] 0.071 | [7] 0.035 | [8] -0.063 | IRAK-1-4 Inhibitor I -0.028

STARD3NL (UniProt O95772)
inactive: erlotinib -0.01 | [1] 0.055 | [2] 0.035 | [3] 0.1 | [4] -0.016 | [5] 0.01 | [6] 0.002 | [7] 0.015 | [8] 0.061 | IRAK-1-4 Inhibitor I 0.043

SRP14 (UniProt P37108)
inactive: erlotinib -0.006 | [1] -0.008 | [2] -0.005 | [3] -0.034 | [4] -0.006 | [5] 0.019 | [6] 0.018 | [7] 0.011 | [8] 0.001 | IRAK-1-4 Inhibitor I 0.001
